No constants are given. Whether binding was seen depends on the method and setting. Binding can be weak; no strength is given.

The target of this assay is protein encoded by the open reading frame US28 of the human cytomegalovirus genome (human cytomegalovirus). In words: displacement of 125I-HuMIP-1α by 1 µM cold ligand on 293 cells expressing US28. On the technique in general: Displacement assays read how much labelled ligand stays bound in the presence of the test substance.

B1: murine MIP-1α (ligand, UniProt P10855 24-92, looked up)
chain: APYGADTPTACCFSYSRKIPRQFIVDYFETSSLCSQPGVIFLTKRNRQICADSKETWVQEYITDLELNA
As to B1, the binding entry was “binds”.

The values are drawn from EP0669979B1 (GENENTECH, INC., dated 2005).
